In PubChem BioAssay AID504467 (National Center for Advancing Translational Sciences (NCATS), 2011):
About 7,700 (2.3%) of roughly 330,000 compounds were called active. Inconclusive results, whose numbers are uncertain, are shown with a selection of clear calls. Calls come from the whole dose curve; as a rule, active = well fitted inhibition curve with a large enough effect; inconclusive = small, poorly fitted or top-dose-only effect, or effect the other way; inactive = flat fitted curve, though single readings scatter. A potency beside an inconclusive call is a rough fit, not a confirmed value.

Test: qHTS screen for small molecules that inhibit ELG1-dependent DNA repair in human embryonic kidney (HEK293T) cells expressing luciferase-tagged ELG1; note: nearly all actives have a fitted effect of over 55% in size
Details: HEK293T ELG1-luciferase reporter, luminescence, 16 h, DNA damage induced by 5-fluorouridine; activity change, negative = inhibition: at 46.1 µM (top of the series)
In short: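 Reporter activity after DNA damage by 5-fluorouridine is monitored. Compound-treated cells incubate 16 hr at 37 °C, then ONE-Glo is added for 30 min before luminescence reading.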
% is set by controls: 0 for no effect and ±100 for the full control effect; potency is the fitted concentration of half-maximal effect.

Compound	Potency	activity change, negative = inhibition
COc1cccc(NC(=O)C2CCCN(S(=O)(=O)c3cccc4cccnc34)C2)c1 (stereo unspecified)	inconclusive: 18.4 µM [inhibitor, partial curve]	–
C#CCOc1ccc(C2C3=C(COC3=O)Nc3cc4c(cc32)OCO4)cc1OC (stereo unspecified)	–	inactive: -10.3%
O=C(Cn1c(COc2ccccc2)nc2ccccc21)Nc1cccc(Cl)c1	inconclusive: 20.6 µM [activator, single point]	–
CCCOC(=O)c1c(NC(=O)/C=C/c2cnn(C)c2C)sc(C(=O)OC)c1C	inconclusive: 8.2 µM [inhibitor, partial curve]	–
O=C(CCc1nc2ccccc2c(=O)[nH]1)N1CCN(c2ccccc2Cl)CC1	inconclusive: 18.3 µM [inhibitor, partial curve]	–
CC(C)(C)[C@H]1C=C(C(=O)NCc2nc3ccccc3[nH]2)O[C@@H](OCCCCO)C1	–	inactive: -9.67%
CC1=C(C(=O)OC2CCCCCCC2)C(c2cc3c(cc2Br)OCO3)CC(=O)N1 (stereo unspecified)	–	inactive: 8.12%
Cc1ccccc1C1=N/C(=C/c2cccs2)C(=O)O1	–	inactive: 21.8%
Cc1cc(NC(=O)CCC(=O)N(c2ccccc2F)C(C(=O)NC2CCCC2)c2ccccc2)no1 (stereo unspecified)	inconclusive: 29.1 µM [inhibitor, single point]	–
COc1ccc(CCn2c(=N)c(C(=O)NCC3CCCO3)cc3c(=O)n4cccc(C)c4nc32)cc1OC (stereo unspecified)	inconclusive: 29.1 µM [inhibitor, single point]	–
CCN1C/C(=C/c2sccc2C)c2nc3ccccc3c(C(=O)O)c2C1	–	inactive: 18.8%
COc1ccc(C)cc1N1CC(C(=O)Nc2ccccc2N2CCCCC2)CC1=O (stereo unspecified)	–	inactive: -10.7%
CC(c1ccco1)N(C(=O)CSc1ccc(Br)cc1)c1ccccn1 (stereo unspecified)	inconclusive: 17.8 µM [inhibitor, single point]	–
Cc1ccc(C(NC(=O)NC(C)c2ccccc2)C(Cl)(Cl)Cl)cc1F (stereo unspecified)	inconclusive: 20.6 µM [inhibitor, single point]	–
CC1(C)CC(=O)C2=C(C1)NC1=C(C(=O)c3ccccc31)C2c1ccc(Cl)cc1 (stereo unspecified)	inconclusive: 29.1 µM [inhibitor, single point]	–
COc1ccc(CCn2c(C)cc3c(c2=O)C(c2ccncc2)C(C#N)=C(N)O3)cc1OC (stereo unspecified)	inconclusive: 31.6 µM [inhibitor, single point]	–
Cc1cccc(N2C(=S)NC3c4cc(Cl)ccc4OC2(C)C3C(=O)N(C)C)c1 (stereo unspecified)	–	inactive: -14.6%
CCOCc1cc(CN2CCCC(CNC(=O)c3ccco3)C2)ccc1OC (stereo unspecified)	–	inactive: 11.3%
O=[N+]([O-])c1ccc(O)c(/C=N/n2c(CO)nc3ccccc32)c1	active: 25.9 µM	–
COc1ccc(Nc2nc(C)cc(C)c2C(N)=O)c(OC)c1	inconclusive: 20.6 µM [inhibitor, single point]	–
O=C(CCCSc1ccc(Cl)cc1)Nc1cc(S(=O)(=O)N2CCOCC2)ccc1O	–	inactive: -27.2%
O=C(O)c1cc2nc(-c3ccccc3)cc(-c3ccccc3)n2n1	–	inactive: 14.8%
COc1ccc(-c2nc(C)sc2C)cc1	–	inactive: 22%
Cc1cccc(C(=O)OC(C)C(=O)N2CCN(Cc3ccccc3)CC2)c1 (stereo unspecified)	–	inactive: 6.77%

Compound	Potency	activity change, negative = inhibition
O=c1c(Cc2ccc(F)cc2)c(O)ccn1Cc1ccc(F)cc1	inconclusive: 16.4 µM [inhibitor, single point]	–
Cc1ccc(-c2noc(CCC(=O)NCCc3ccccc3Cl)n2)cc1	–	inactive: -2.26%
Cc1ccc(-n2c(=S)[nH]c3nc4c(cc3c2=O)COC(C)(C)C4)cc1	–	inactive: 7.19%
CCCn1nnc(NC(=O)/C=C/c2cc(Br)ccc2OC)n1	–	inactive: 10.5%
CC(C)c1ccc(/C=C/C(=O)NC(=S)Nc2ccc(CN3CCOCC3)cc2)cc1	inconclusive: 14.6 µM [inhibitor, partial curve]	–
COc1ccc(Br)c(C(=O)OCC(=O)N2CCC(Cc3ccccc3)CC2)c1	inconclusive: 29.1 µM [inhibitor, single point]	–
COCC(=O)N/N=C\c1ccc(OC/C=C/c2ccccc2)c(OC)c1	inconclusive: 20.6 µM [inhibitor, single point]	–
CC(C)(C)[C@H]1CCC(=O)N([C@H](CSc2ccccc2)Cc2ccccc2)CC1	–	inactive: -16.2%
O=C(CSc1cn(CCNC(=O)c2ccccc2F)c2ccccc12)NCC1CCCO1 (stereo unspecified)	inconclusive: 20.6 µM [inhibitor, partial curve]	–
COC(=O)c1cccc(NC(=O)CN2C(=O)c3ccccc3C2=O)c1	inconclusive: 35.5 µM [inhibitor, single point]	–
O=C(NCC1CC1)C1CCCN(S(=O)(=O)c2ccc(-n3cnnn3)cc2)C1 (stereo unspecified)	–	inactive: -3.23%
CCCn1c(SCC(=O)Nc2ccc(C(=O)Nc3ccccc3OC)cc2)n[nH]c1=O	inconclusive: 16.4 µM [inhibitor, partial curve]	–
CCN1C(=O)/C(=C\c2nc3ccccc3c(=O)n2CC)c2ccccc21	inconclusive: 29.1 µM [inhibitor, single point]	–
COC(=O)CCCC1=CC2=C(c3ccccc3)C(=O)C(C)(OC(=O)C3CCCC3)C(=O)C2=CN1C1CCCCC1 (stereo unspecified)	–	inactive: 1.44%
CCOC(=O)C1(CC2CCCCO2)CCN(Cc2cc(F)ccc2-n2cccn2)CC1 (stereo unspecified)	inconclusive: 23.1 µM [activator, single point]	–
CCCN1C(=O)c2ccccc2NC1c1ccc(Cl)c(Cl)c1 (stereo unspecified)	–	inactive: 2.03%
Cc1cc2c(cc1S(=O)(=O)NC1CCCCC1C)OCC(=O)N2 (stereo unspecified)	inconclusive: 25.9 µM [activator, partial curve, poor fit]	–
CC1CC(C)CN(S(=O)(=O)c2ccc3c(c2)n(C)c(=O)c(=O)n3C)C1 (stereo unspecified)	inconclusive: 6.51 µM [activator, partial curve, poor fit]	–
O=C(NC1CC(=O)N(c2ccccc2)C1)C1CC1 (stereo unspecified)	–	inactive: 1.42%
Cc1ccc(-c2nnc3ccc(SCC(=O)Nc4cc(C)on4)nn23)cc1	inconclusive: 11.6 µM [inhibitor, partial curve, poor fit]	–
Cc1cc(OCC(=O)NCc2cccnc2)c2c(C)c(Cc3ccccc3)c(=O)oc2c1	inconclusive: 20.6 µM [inhibitor, single point]	–
CCOC(=O)CSc1nc(C2CC2)cc(-c2ccc(Cl)cc2)c1C#N	–	inactive: -4.37%
COc1ccc(OC)c(C2=NS(=O)(=O)N(C)C(C(=O)Nc3ccc(F)cc3F)=C2)c1	–	inactive: -20.9%
O=C(Nc1cccc(C(F)(F)F)c1)c1cccnc1N1CCN(c2ccccc2)CC1	inconclusive: 23.1 µM [inhibitor, partial curve]	–

In the list so far, 2 have a furan ring, fused or not.
Compound	Potency	activity change, negative = inhibition
CC(c1ccco1)N(C(=O)CSc1ccc(Br)cc1)c1ccccn1 (stereo unspecified)	inconclusive: 17.8 µM [inhibitor, single point]	–
CCOCc1cc(CN2CCCC(CNC(=O)c3ccco3)C2)ccc1OC (stereo unspecified)	–	inactive: 11.3%

Next entries

Compound	Potency	activity change, negative = inhibition
Cc1nn(C)c(C)c1Sc1ccc(Br)cc1	inconclusive: 18.4 µM [inhibitor, partial curve, poor fit]	–
NC1=NC(c2ccc(Cl)cc2)N(c2ccc(S(N)(=O)=O)cc2)C(N)=N1 (stereo unspecified)	–	inactive: -0.973%
CCCC(=O)c1ccc(N2CCN(C(=O)c3cccs3)CC2)c(F)c1	inconclusive: 18.3 µM [inhibitor, single point]	–
CCOC(=O)[C@H]1[C@H]2COc3ccccc3[C@@H]2N2C(=O)[C@@H](CO)NC(=O)[C@@]12C	–	inactive: 20.5%
COC(=O)C1=C(C)Nc2nc3ccccc3n2C1c1ccccc1F (stereo unspecified)	–	inactive: -7.77%
Cn1c(N)c(C(=O)/C=C/c2ccccc2)c(=O)[nH]c1=O	inconclusive: 20.6 µM [activator, partial curve]	–
CN1CCN(C(=O)CNC(=O)c2cccs2)CC1	inconclusive: 20.6 µM [activator, single point]	–
COC(=O)CC1C(=O)NCCN1C(=S)NC(=O)c1sc2ccccc2c1Cl (stereo unspecified)	–	inactive: 6.82%
Cc1cccc(OCc2nnc(SCC(=O)Nc3ccc(C)c(C)c3)o2)c1	–	inactive: -2.49%
CC1CCN(c2c(NCC3CCC(C(=O)NCc4ccc(F)cc4)CC3)c(=O)c2=O)CC1 (stereo unspecified)	inconclusive: 8.2 µM [inhibitor, partial curve]	–
Cc1nc2ccccc2[nH]c1=O	inconclusive: 20.6 µM [activator, partial curve, poor fit]	–
CCCCOc1ccc(-c2nc(/C=N/c3nccs3)c(O)o2)cc1	inconclusive: 14.6 µM [activator, partial curve, poor fit]	–
CC(C)c1ccccc1NC(=O)c1cccc(NC(=O)c2ccccc2)c1	inconclusive: 23.1 µM [inhibitor, single point]	–
COc1ccc(C2C(C(=O)c3ccc(C)o3)=C(O)C(=O)N2c2cc(C)on2)cc1OC (stereo unspecified)	–	inactive: -4.44%
CCn1c(SCc2nnc(-c3ccccc3)o2)nnc1-c1ccc(S(=O)(=O)N2CCCC2)cc1	inconclusive: 20.6 µM [inhibitor, partial curve]	–
CCOc1ccccc1NC(=O)CC1Nc2cc(C)c(C)cc2NC1=O (stereo unspecified)	inconclusive: 22.4 µM [inhibitor, partial curve, poor fit]	–
Cc1cccc(N(CC(O)CON=C2c3ccccc3-c3ccccc32)S(C)(=O)=O)c1 (stereo unspecified)	inconclusive: 16.4 µM [inhibitor, single point]	–
COc1cccc([C@@H]2Oc3ccc(OC)cc3C(=O)[C@H]2OC(=O)NCc2ccc3c(c2)OCO3)c1	inconclusive: 3.26 µM [activator, single point]	–
O=C(O)c1ccccc1-n1ncc2c1/C(=C/c1ccc(Cl)cc1)CC2	–	inactive: -0.839%
COc1ccccc1CNC(=O)Cn1c(=O)c2cccn2c2cccnc21	–	inactive: -1.39%
O=S(=O)(c1ccc2c(c1)OCCO2)N1CCC(O)(c2ccc(Cl)cc2)CC1	inconclusive: 12.6 µM [inhibitor, single point]	–
COc1ccc(NC(=O)CS(=O)(=O)c2ccc(F)cc2)cc1	inconclusive: 25.9 µM [activator, single point]	–
COc1ccc([C@H]2CC(=O)C=C(c3ccc(C)c4ccccc34)C2)cc1	inconclusive: 14.6 µM [inhibitor, single point]	–

Single entries from the results shown.
activity change, negative = inhibition with `COc1ccccc1CNC(=O)Cn1c(=O)c2cccn2c2cccnc21` reads inactive: -1.39%
activity change, negative = inhibition with `COC(=O)CC1C(=O)NCCN1C(=S)NC(=O)c1sc2ccccc2c1Cl` (stereo unspecified) reads inactive: 6.82%
